In the M2OR odorant receptor database:
The list shows a part of the results, in another mix than the full data. Calls are pooled over several reports, among them a noisy single-well screen. The list shows a part of the results. The list shows a part of the results.

Chains of the proteins cited; added tags and fusions are not shown. A line that says so, or that is headed by a name, gives the form on record, which may keep a tag or linker.
O5AL1, as listed by the source: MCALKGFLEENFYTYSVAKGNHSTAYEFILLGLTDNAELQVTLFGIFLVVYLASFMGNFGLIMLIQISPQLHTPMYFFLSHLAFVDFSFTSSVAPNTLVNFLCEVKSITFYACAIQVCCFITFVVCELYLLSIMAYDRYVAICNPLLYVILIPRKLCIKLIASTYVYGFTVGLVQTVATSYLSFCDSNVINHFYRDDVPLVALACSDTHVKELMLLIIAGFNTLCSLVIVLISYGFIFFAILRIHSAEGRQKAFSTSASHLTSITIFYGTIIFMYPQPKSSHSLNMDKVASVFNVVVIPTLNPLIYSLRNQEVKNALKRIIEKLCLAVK

Key:
Conditions in all cases: stereoisomer not certain
O52R1 = system: T1, O52R1
T1 sequence (whole entry): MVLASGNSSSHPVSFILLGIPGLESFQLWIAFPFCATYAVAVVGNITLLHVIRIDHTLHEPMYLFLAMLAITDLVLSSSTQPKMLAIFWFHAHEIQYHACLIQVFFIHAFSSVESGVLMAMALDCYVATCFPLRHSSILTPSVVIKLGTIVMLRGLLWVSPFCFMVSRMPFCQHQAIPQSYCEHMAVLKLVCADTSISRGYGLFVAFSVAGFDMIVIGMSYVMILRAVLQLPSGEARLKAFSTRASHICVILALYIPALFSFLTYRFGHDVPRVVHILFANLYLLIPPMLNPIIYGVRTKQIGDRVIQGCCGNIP
Method in brief: (§1)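 Values were gathered from published papers (main text and supplementary material), with extra details requested from the original authors when needed, and checked for typos and inconsistencies. Each receptor–molecule pair is called responsive (active) if the original authors judged the measured signal statistically different from baseline, and non-responsive (inactive) otherwise. Assay methods varied by source, often transient mammalian cell-line luciferase assays. Recorded details include cell line, G-protein, co-transfected protein and tags.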

O52W1 = system: T2, O52W1
T2 sequence (whole entry): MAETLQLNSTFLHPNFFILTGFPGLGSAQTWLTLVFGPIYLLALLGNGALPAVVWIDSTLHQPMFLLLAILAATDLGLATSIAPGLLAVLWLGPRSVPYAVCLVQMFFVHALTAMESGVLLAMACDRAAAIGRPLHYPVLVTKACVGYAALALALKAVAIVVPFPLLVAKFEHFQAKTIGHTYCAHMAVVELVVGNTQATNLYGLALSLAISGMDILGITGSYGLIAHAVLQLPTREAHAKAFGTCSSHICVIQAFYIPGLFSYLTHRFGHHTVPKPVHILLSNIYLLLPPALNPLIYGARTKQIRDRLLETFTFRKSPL
Method in brief: as §1

O56A3 = system: T3, O56A3
T3 sequence (whole entry): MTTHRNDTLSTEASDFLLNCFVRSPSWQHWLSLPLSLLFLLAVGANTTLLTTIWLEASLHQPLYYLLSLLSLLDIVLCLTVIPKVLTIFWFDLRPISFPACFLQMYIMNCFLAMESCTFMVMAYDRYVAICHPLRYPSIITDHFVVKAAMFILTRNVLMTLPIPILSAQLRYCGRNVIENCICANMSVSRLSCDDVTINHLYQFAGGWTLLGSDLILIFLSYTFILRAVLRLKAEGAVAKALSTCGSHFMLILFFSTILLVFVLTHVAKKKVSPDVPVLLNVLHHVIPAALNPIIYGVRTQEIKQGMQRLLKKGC
Method in brief: as §1

O56B1 = system: T4, O56B1
T4 sequence (whole entry): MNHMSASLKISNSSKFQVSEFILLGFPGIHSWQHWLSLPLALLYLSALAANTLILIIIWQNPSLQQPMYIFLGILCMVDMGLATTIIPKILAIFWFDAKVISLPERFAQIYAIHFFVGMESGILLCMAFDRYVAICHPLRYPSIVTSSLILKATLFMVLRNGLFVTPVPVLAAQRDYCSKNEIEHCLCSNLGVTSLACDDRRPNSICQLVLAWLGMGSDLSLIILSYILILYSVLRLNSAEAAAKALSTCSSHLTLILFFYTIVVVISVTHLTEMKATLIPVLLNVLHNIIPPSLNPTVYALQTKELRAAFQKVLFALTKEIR
Method in brief: as §1

O56B4 = system: T5, O56B4
T5 sequence (whole entry): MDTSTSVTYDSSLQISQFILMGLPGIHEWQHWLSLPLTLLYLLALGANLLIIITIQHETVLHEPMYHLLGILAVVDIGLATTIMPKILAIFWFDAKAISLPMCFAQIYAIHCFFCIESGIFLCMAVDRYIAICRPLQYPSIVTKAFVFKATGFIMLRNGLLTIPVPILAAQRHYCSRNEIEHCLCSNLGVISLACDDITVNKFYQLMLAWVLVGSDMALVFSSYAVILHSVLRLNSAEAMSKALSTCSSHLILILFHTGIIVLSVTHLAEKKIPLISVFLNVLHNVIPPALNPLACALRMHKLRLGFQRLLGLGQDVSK
Method in brief: as §1

O5AC2 = system: T6, O5AC2
T6 sequence (whole entry): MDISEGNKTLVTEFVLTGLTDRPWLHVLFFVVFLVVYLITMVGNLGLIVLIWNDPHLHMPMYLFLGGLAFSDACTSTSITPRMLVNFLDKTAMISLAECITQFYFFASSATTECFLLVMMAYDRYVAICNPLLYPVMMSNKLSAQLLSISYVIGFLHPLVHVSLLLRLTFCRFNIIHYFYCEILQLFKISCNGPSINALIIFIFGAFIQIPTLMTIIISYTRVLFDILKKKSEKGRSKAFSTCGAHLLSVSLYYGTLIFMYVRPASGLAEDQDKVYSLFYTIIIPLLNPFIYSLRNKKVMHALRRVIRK
Method in brief: as §1

O5AK2 = system: T7, O5AK2
T7 sequence (whole entry): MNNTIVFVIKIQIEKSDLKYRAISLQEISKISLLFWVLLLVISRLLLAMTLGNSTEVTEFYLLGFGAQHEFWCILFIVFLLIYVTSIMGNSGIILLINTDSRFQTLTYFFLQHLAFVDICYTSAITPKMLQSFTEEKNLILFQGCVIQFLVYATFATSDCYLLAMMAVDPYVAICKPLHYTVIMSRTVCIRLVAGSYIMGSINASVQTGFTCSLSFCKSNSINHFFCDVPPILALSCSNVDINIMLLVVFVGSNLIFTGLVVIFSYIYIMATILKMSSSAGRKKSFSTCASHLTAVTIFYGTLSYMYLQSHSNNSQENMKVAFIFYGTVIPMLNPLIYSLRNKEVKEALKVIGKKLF
Method in brief: as §1

O5AK3 = system: T8, O5AK3
T8 sequence (whole entry): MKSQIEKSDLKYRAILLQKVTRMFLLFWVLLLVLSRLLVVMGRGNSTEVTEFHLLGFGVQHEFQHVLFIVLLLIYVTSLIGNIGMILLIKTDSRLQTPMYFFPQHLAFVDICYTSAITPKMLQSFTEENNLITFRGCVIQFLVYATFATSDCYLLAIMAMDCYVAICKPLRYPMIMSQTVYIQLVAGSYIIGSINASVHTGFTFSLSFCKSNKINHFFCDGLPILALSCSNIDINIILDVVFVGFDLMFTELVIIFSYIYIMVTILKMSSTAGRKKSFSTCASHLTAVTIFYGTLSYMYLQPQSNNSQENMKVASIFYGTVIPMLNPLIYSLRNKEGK
Method in brief: as §1

O5AL1 [1] = system: T9, O5AL1
T9 sequence (whole entry): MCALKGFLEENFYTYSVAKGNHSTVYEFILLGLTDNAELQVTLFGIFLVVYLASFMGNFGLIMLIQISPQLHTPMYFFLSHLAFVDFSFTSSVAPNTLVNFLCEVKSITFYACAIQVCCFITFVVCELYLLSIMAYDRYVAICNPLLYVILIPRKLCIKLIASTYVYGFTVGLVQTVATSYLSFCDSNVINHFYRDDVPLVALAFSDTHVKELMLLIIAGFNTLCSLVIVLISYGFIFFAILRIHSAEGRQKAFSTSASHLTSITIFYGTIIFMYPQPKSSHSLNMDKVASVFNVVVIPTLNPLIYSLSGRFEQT
Method in brief: as §1

O5AP2 = system: T10, O5AP2
T10 sequence (whole entry): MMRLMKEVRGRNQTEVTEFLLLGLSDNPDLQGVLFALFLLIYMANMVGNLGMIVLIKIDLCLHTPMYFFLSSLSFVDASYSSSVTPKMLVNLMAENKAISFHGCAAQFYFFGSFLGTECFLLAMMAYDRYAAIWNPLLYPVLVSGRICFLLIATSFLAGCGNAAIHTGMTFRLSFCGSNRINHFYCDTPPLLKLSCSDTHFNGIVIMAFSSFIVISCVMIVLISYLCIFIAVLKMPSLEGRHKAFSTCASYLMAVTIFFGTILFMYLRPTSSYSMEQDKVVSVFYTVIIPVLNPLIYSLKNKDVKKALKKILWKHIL
Method in brief: as §1

O5AU1 = system: T11, O5AU1
T11 sequence (whole entry): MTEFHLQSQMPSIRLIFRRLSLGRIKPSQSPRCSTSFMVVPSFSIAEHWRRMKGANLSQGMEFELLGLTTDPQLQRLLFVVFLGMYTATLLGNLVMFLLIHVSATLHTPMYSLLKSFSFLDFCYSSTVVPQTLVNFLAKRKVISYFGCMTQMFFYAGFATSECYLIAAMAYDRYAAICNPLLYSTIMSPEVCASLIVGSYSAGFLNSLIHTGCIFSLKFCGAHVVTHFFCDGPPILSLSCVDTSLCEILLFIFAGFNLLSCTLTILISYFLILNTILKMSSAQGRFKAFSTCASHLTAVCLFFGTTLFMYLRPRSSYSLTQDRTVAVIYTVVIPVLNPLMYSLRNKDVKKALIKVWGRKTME
Method in brief: as §1

O5H14 = system: T12, O5H14
T12 sequence (whole entry): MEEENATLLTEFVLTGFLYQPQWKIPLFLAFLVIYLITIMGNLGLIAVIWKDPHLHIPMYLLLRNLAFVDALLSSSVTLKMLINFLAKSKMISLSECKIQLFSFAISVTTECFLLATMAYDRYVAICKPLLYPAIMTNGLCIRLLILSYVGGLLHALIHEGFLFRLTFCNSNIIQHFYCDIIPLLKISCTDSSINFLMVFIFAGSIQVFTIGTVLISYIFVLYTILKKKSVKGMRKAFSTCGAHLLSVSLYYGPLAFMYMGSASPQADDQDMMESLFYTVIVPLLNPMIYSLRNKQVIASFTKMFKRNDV
Method in brief: as §1

O6C68 = system: T13, O6C68
T13 sequence (whole entry): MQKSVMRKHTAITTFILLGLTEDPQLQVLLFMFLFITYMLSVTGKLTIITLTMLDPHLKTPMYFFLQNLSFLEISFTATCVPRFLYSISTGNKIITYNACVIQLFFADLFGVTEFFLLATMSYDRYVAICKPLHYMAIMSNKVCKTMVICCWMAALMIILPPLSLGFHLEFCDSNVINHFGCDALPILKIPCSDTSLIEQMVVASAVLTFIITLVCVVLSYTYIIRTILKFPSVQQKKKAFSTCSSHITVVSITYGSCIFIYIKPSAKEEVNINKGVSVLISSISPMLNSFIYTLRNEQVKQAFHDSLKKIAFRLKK
Method in brief: as §1

O6C70 = system: T14, O6C70
T14 sequence (whole entry): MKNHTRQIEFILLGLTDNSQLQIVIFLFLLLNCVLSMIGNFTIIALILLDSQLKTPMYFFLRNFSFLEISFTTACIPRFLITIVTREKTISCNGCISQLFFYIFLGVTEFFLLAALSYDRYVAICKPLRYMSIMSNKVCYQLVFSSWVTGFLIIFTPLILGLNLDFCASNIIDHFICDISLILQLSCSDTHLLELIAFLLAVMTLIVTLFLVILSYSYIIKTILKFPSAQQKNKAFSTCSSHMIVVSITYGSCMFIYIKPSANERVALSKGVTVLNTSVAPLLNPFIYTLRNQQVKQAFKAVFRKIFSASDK
Method in brief: as §1

O7E24 = system: T15, O7E24
T15 sequence (whole entry): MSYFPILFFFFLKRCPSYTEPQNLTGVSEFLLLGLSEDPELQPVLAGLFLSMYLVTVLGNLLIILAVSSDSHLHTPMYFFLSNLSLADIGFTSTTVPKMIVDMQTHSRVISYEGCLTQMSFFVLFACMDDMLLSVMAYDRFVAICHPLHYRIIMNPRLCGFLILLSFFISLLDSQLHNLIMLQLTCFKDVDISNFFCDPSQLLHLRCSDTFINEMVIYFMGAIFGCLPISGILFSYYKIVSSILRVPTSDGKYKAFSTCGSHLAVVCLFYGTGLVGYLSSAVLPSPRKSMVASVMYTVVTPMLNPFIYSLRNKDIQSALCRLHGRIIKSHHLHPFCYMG
Method in brief: as §1

OR10A3 (Homo sapiens) = target: T16, OR10A3 (Homo sapiens) (UniProt P58181)
T16 sequence (whole entry): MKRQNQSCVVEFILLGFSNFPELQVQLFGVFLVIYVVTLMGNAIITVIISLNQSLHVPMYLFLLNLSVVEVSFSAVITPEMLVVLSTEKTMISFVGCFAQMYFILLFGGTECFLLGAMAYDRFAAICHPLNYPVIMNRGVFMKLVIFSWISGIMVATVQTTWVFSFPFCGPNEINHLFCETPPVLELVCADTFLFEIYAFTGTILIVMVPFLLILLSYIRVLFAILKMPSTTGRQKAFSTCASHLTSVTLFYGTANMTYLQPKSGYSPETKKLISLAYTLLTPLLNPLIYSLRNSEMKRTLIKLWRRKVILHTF
Method in brief: as §1

O5AL1 [2] = system: O5AL1; remark: listed apart in the source
Method in brief: as §1

O5AL1 [3] = system: O5AL1; remark: listed apart in the source
Method in brief: as §1

O5AN1 = system: T17, O5AN1
T17 sequence (whole entry): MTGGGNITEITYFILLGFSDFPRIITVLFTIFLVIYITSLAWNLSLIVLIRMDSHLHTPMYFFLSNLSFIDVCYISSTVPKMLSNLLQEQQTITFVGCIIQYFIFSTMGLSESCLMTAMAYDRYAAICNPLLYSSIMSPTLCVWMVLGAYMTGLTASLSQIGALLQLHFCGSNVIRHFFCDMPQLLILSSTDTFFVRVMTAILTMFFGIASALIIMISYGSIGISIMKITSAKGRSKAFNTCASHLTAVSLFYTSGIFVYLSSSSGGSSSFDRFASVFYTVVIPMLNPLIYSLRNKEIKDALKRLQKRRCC
Method in brief: as §1

Measured: odorant receptor agonist call

CC12CCC(CC1)C(C)(C)O2
not listed: O5AL1 [2] | O5AL1 [3] | O5AN1
inactive: all other assays above

CCCCCCCCOC(C)=O
active: O6C68
not listed: O5AL1 [2] | O5AL1 [3] | O5AN1
inactive: all other assays above

CC(=O)OC1CC2CCC1(C)C2(C)C (centres undefined)
active: O56A3
not listed: O5AL1 [2] | O5AL1 [3] | O5AN1
inactive: all other assays above

CCCC(=O)O
active: O5AL1 [2] | O5AL1 [1]
not listed: O5AN1
inactive: all other assays above

CC(C)CCC(=O)O
not listed: O5AL1 [2] | O5AL1 [3] | O5AN1
inactive: all other assays above

CC1COCc2cc3c(cc21)C(C)(C)C(C)C3(C)C (centres undefined)
inactive: O52W1 | O56A3 | O56B1 | O56B4 | O5AN1 | O5AP2 | O6C68
not listed: O5AL1 [2] | O5AL1 [3]
active: all other assays above
